The results in this text go back to PubChem BioAssay AID342 (DTP/NCI, 2004).

The list is a part of this screen's results and no random one: it gathers some chemical classes. Not every dose and run of a compound is shown. T/C: endpoint of the treated group in % of that of the vehicle group. Some T/C values are marked as having no survivor count here; that says nothing about deaths at the dose. Schedule codes are those of the source, taken here to give the interval after Q, in days (D) or hours (H), and the number of doses after X. Some entries were tested several times; the values are given in rising order. Some schedules carry Z or #; the key to these is not given.

In the experiment the test system is Swiss mice, Sarcoma 180 sc, mean tumor weight T/C. In words: NCI In Vivo Anticancer Drug Screen. Data for tumor model Sarcoma 180 (subcutaneous) in Swiss mice. The conditions noted are these: T/C endpoint: mean tumor weight, evaluation day not shown, higher T/C = larger tumour. As for the experimental part: The antitumor activity of compounds was measured in mice bearing transplantable tumors. Survival or tumor size were measured and the results are expressed as the measurement made in the treated group (T) divided by the measurement made in the vehicle treated control group (C). The tumor model used in this assay is Sarcoma 180 (subcutaneous) in Swiss mice

As to `CC(C(=O)O)N(CCCl)CCCl` (configuration not stated), the T/C reads like this: (dose: 0.61 mg/kg/injection, schedule: Q01DX007 (ip), vehicle: carboxymethylcellulose (CMC)) 99 % of control [survivor count not shown]; (dose: 0.62 mg/kg/injection, schedule: Q#A X014 (ip), vehicle: distilled water + alcohol) 58 % of control [survivor count not shown]; (dose: 1.0 mg/kg/injection, schedule: Q01DX007 (ip), vehicle: methylcellulose (MC)) 84 [survivor count not shown] and 90 % of control [survivor count not shown]; (dose: 1.22 mg/kg/injection, schedule: Q01DX007 (ip), vehicle: carboxymethylcellulose (CMC)) 95 % of control [survivor count not shown]; (dose: 1.25 mg/kg/injection, schedule: Q01DX005 (iv), vehicle: saline) 112 % of control [survivor count not shown]; (dose: 1.25 mg/kg/injection, schedule: Q01DX007 (im), vehicle: saline) 99 % of control [survivor count not shown]. Also, the T/C is 95 % of control [survivor count not shown] (dose: 1.25 mg/kg/injection, schedule: Q01DX007 (ip), vehicle: saline); 113 % of control [survivor count not shown] (dose: 1.25 mg/kg/injection, schedule: Q01DX007 (sc), vehicle: saline); 55 % of control [survivor count not shown] (dose: 1.25 mg/kg/injection, schedule: Q#A X014 (ip), vehicle: distilled water + alcohol); 57 [survivor count not shown] and 81 % of control [survivor count not shown] (dose: 1.5 mg/kg/injection, schedule: Q01DX007 (ip), vehicle: methylcellulose (MC)); 73 % of control [survivor count not shown] (dose: 1.8 mg/kg/injection, schedule: Q01DX007 (ip), vehicle: carboxymethylcellulose (CMC)); 68 [survivor count not shown] and 82 % of control [survivor count not shown] (dose: 2.0 mg/kg/injection, schedule: Q01DX007 (ip), vehicle: methylcellulose (MC)). Also, the T/C is 66 % of control [survivor count not shown] (dose: 2.25 mg/kg/injection, schedule: Q01DX007 (ip), vehicle: carboxymethylcellulose (CMC)); 84 % of control [survivor count not shown] (dose: 2.45 mg/kg/injection, schedule: Q01DX007 (ip), vehicle: carboxymethylcellulose (CMC)); 63 % of control [survivor count not shown] (dose: 2.5 mg/kg/injection, schedule: Q01DX005 (iv), vehicle: saline); 81 % of control [survivor count not shown] (dose: 2.5 mg/kg/injection, schedule: Q01DX007 (im), vehicle: saline); 62 [survivor count not shown] and 72 % of control [survivor count not shown] (dose: 2.5 mg/kg/injection, schedule: Q01DX007 (ip), vehicle: methylcellulose (MC)); 63 % of control [survivor count not shown] (dose: 2.5 mg/kg/injection, schedule: Q01DX007 (ip), vehicle: saline). The T/C by setting is: (dose: 2.5 mg/kg/injection, schedule: Q01DX007 (sc), vehicle: saline) 68 % of control [survivor count not shown]; (dose: 2.5 mg/kg/injection, schedule: Q#A X014 (ip), vehicle: distilled water + alcohol) 16 % of control [survivor count not shown]; (dose: 3.0 mg/kg/injection, schedule: Q01DX007 (ip), vehicle: carboxymethylcellulose (CMC)) 82 % of control [survivor count not shown]; (dose: 3.0 mg/kg/injection, schedule: Q01DX007 (ip), vehicle: methylcellulose (MC)) 35 [survivor count not shown] and 77 % of control [survivor count not shown]; (dose: 3.5 mg/kg/injection, schedule: Q01DX007 (ip), vehicle: methylcellulose (MC)) 35 [survivor count not shown] and 40 % of control [survivor count not shown]; (dose: 4.0 mg/kg/injection, schedule: Q01DX007 (ip), vehicle: methylcellulose (MC)) 17 [survivor count not shown] and 36 % of control [survivor count not shown]. Also, the T/C is 33 % of control [survivor count not shown] (dose: 4.5 mg/kg/injection, schedule: Q01DX007 (ip), vehicle: carboxymethylcellulose (CMC)); 18 [survivor count not shown] and 24 % of control [survivor count not shown] (dose: 4.5 mg/kg/injection, schedule: Q01DX007 (ip), vehicle: methylcellulose (MC)); 39 % of control [survivor count not shown] (dose: 4.9 mg/kg/injection, schedule: Q01DX007 (ip), vehicle: carboxymethylcellulose (CMC)); 25 % of control [survivor count not shown] (dose: 5.0 mg/kg/injection, schedule: Q01DX005 (iv), vehicle: saline); 37 % of control [survivor count not shown] (dose: 5.0 mg/kg/injection, schedule: Q01DX007 (im), vehicle: saline); 11 [survivor count not shown] and 30 % of control [survivor count not shown] (dose: 5.0 mg/kg/injection, schedule: Q01DX007 (ip), vehicle: methylcellulose (MC)). Moreover, the T/C was 43 % of control [survivor count not shown] (dose: 5.0 mg/kg/injection, schedule: Q01DX007 (ip), vehicle: saline); 57 % of control [survivor count not shown] (dose: 5.0 mg/kg/injection, schedule: Q01DX007 (oral), vehicle: saline); 65 % of control [survivor count not shown] (dose: 5.0 mg/kg/injection, schedule: Q01DX007 (sc), vehicle: saline); 44 % of control [survivor count not shown] (dose: 7.5 mg/kg/injection, schedule: Q01DX007 (im), vehicle: saline); 13 % of control [survivor count not shown] (dose: 7.5 mg/kg/injection, schedule: Q01DX007 (ip), vehicle: saline); 50 % of control [survivor count not shown] (dose: 10.0 mg/kg/injection, schedule: Q01DX007 (oral), vehicle: saline). Also, the T/C (dose: 20.0 mg/kg/injection, schedule: Q01DX007 (oral), vehicle: saline) is 42 % of control [survivor count not shown].

For the compound `Oc1c(SCCCl)c(SCCCl)c(O)c(SCCCl)c1SCCCl`, the T/C reads like this: (dose: 63.0 mg/kg/injection, schedule: Q01DX007 (ip), vehicle: carboxymethylcellulose (CMC)) 95 % of control [survivor count not shown]; (dose: 125.0 mg/kg/injection, schedule: Q01DX007 (ip), vehicle: carboxymethylcellulose (CMC)) 111 % of control [survivor count not shown]; (dose: 250.0 mg/kg/injection, schedule: Q01DX007 (ip), vehicle: carboxymethylcellulose (CMC)) 70 % of control [survivor count not shown]; (dose: 500.0 mg/kg/injection, schedule: Q01DX007 (ip), vehicle: carboxymethylcellulose (CMC)) 84 % of control [survivor count not shown].

`NC(Cc1cccc(N(CCCl)CCCl)c1)C(=O)O` (configuration not stated): the T/C is 64 % of control [survivor count not shown] (dose: 1.25 mg/kg/injection, schedule: Q#A X014 (ip), vehicle: carboxymethylcellulose (CMC)) and 26 % of control [survivor count not shown] (dose: 2.5 mg/kg/injection, schedule: Q#A X014 (ip), vehicle: carboxymethylcellulose (CMC)).

Turning to `NC(Cc1ccccc1N(CCCl)CCCl)C(=O)O` (configuration not stated), the T/C reads like this: (dose: 0.12 mg/kg/injection, schedule: Q#A X014 (ip), vehicle: methylcellulose (MC)) 77 % of control [survivor count not shown]; (dose: 0.25 mg/kg/injection, schedule: Q#A X014 (ip), vehicle: methylcellulose (MC)) 54 % of control [survivor count not shown]; (dose: 0.5 mg/kg/injection, schedule: Q#A X014 (ip), vehicle: methylcellulose (MC)) 74 % of control [survivor count not shown]; (dose: 1.0 mg/kg/injection, schedule: Q#A X014 (ip), vehicle: methylcellulose (MC)) 36 % of control [survivor count not shown].
